Measurements from PubChem BioAssay AID493014 (National Center for Advancing Translational Sciences (NCATS), 2011).
The list shows a part of the results. These are further read-outs of the screen, such as a control signal, another cell line or another target. No call is given for them. The list favours compounds with an active or inconclusive main result. The note in brackets gives the kind of curve behind each potency; many fits are weak.

Test: qHTS Assay to Find Inhibitors of Chronic Active B-Cell Receptor Signaling
Settings: ABC-DLBCL IkBa-CBG/CBR reporter, luminescence ratio (green luciferase fused to IkBa over red control in TMD8 lymphoma cells), 4 h
Procedure, shortened: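 Compounds up to 46 uM were incubated four hours with TMD8 cells whose green CBG68 luciferase is fused to IkappaBalpha; red CBR luminescence normalised the signal, and concentration-effect curves were fitted to fusion, red and ratio data.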

[1] = measured here: CBR red luminescence, cell number
[2] = measured here: IkBa-CBG green luminescence

Compound	AC50 [1]	AC50 [2]
O=C(CN1C(=O)NC(c2ccccc2)(c2ccccc2)C1=O)Nc1ccc(N2CCOCC2)cc1	29.1 µM [rising, single point]	
COc1ccccc1CNC(=O)C1CCCN(S(=O)(=O)c2cccc3nonc23)C1 (configuration not stated)	31.6 µM [falling, single point]	
CCOc1cc(/C=N/N=C(/N)c2nonc2N)cc(Br)c1OCc1ccc(Cl)cc1	13 µM [rising, partial curve]	
C=CCNc1nc(C)c(CNc2c(C)cc(C)cc2C)nc1C#N	35.5 µM [rising, single point]	
COc1ccc(-c2c(-c3ccc(OCC(=O)NN)cc3O)n[nH]c2C)cc1OC	11.2 µM [falling, partial curve]	11.2 µM [rising, partial curve, poor fit]
CCN(CC)C(=O)c1ccc(Nc2nnc(-c3ccc(O)cc3)c3ccccc23)cc1	7.08 µM [falling, full curve, poor fit]	
O=C1c2ccc(-c3ccc(F)cc3OCc3ccccc3)cc2S(=O)(=O)c2cccc(C(=O)N3CCCC3)c21	1.3 µM [rising, full curve]	
N/C(=N\OC(=O)COc1ccc2ccccc2c1)c1ccccn1	35.5 µM [falling, single point]	
Cc1ccccc1Nc1cc(C(=O)NCc2ccco2)c2ccccc2n1	4.61 µM [falling, partial curve, poor fit]	2.31 µM [rising, full curve, poor fit]
CCOc1ccc(-n2cc(-c3ccccc3)c3c(NCCc4ccccc4)ncnc32)cc1	12.6 µM [rising, partial curve]	
COc1ccc(C(=O)O)cc1S(=O)(=O)Nc1ccccc1Cc1ccccc1	5.62 µM [rising, full curve]	
C=CCn1c(SCC(=O)Nc2ccc(-c3nc4ccc(C)cc4s3)cc2)nnc1-c1ccccc1	5.17 µM [rising, partial curve]	
O=C(CCc1ccccc1)Nc1ccc(Cl)cn1	8.91 µM [falling, partial curve]	35.5 µM [falling, single point]
CC(=O)c1ccc(NC(=S)Nc2cccc3cnccc23)cc1	15.8 µM [falling, single point]	
COc1cccc(NC2=C(Cl)C(=O)OC2OC(=O)c2ccco2)c1 (configuration not stated)	3.55 µM [falling, partial curve]	
CCCOCc1ccc(O)c2ncccc12	0.282 µM [rising, full curve, poor fit]	2.24 µM [falling, full curve, poor fit]
COc1ccc(NC(=S)N(Cc2cccnc2)Cc2ccco2)cc1	35.5 µM [rising, single point]	
CCCn1c(SCC(=O)c2ccc3c(c2)OCCO3)n[nH]c1=O	10 µM [falling, partial curve, poor fit]	
CCN(CC)S(=O)(=O)c1cccc(C(=O)Nc2cccc(C)c2)c1	20.6 µM [falling, single point]	
CN1C(=O)CSc2ccc(NC(=O)NCCC3=CCCCC3)cc21	0.92 µM [rising, full curve, poor fit]	
COc1cc(CN2CCCCC2C(=O)Nc2ccc(Oc3ccccc3)nc2)ccc1O (configuration not stated)	6.31 µM [rising, full curve]	

Compound	AC50 [1]	AC50 [2]
CNC(=O)CC1C(=O)N(C)C(=S)N1NC(=O)c1ccccc1 (configuration not stated)	0.1 µM [falling, full curve, poor fit]	
CCCCc1ccc(Nc2ncccc2C#N)cc1	6.31 µM [rising, partial curve, poor fit]	
O=C(CSc1nc2ccccc2nc1N1CCCCC1)Nc1ccc(F)cc1	3.55 µM [falling, full curve]	
O=C(CSc1nc2nc3c(cc2c(=O)n1-c1ccccc1)CCCC3)Nc1ccccc1	0.651 µM [rising, full curve]	
CCOC(=O)CSc1nc2ccccc2c(=O)n1NC(=O)c1ccccc1	10 µM [falling, partial curve, poor fit]	
COc1ccc(NC(=O)C2CCCC2)cc1S(=O)(=O)N1CCOCC1	20.6 µM [rising, single point]	
Cn1nccc1C(=O)OCC(=O)Nc1nc(-c2ccccc2)cs1	11.2 µM [falling, partial curve]	
COc1ccc([N+](=O)[O-])cc1N(CC(O)CN1C(=O)NC(C)(C)C1=O)S(=O)(=O)c1ccccc1 (configuration not stated)	8.91 µM [falling, partial curve, poor fit]	
Cc1cc(C(F)(F)F)cc(NNC(=O)NC(=O)c2c(F)cccc2Cl)n1	3.16 µM [rising, single point]	
Cc1cc(=O)[nH]c(N/N=C/c2c(C)nn(-c3ccccc3Cl)c2Cl)n1	11.2 µM [falling, partial curve, poor fit]	
O=C(/C=C/c1ccco1)NC(=S)Nc1ccc(C(=O)O)cc1	2.51 µM [falling, full curve]	
O=C(CCCC(=O)N(CC(=O)NC1CCCC1)Cc1ccccc1)Nc1ccccn1	14.1 µM [falling, single point]	
Cc1nccn1CCCNC(=O)c1nc(Cn2cc([N+](=O)[O-])cn2)no1	1.41 µM [rising, full curve]	
O=C(Cn1nnc(-c2ccncc2)n1)N(C1CCCCC1)C1CCCCC1	20.6 µM [falling, partial curve, poor fit]	
CS(=O)(=O)N1CCC(C(=O)N2CCN(c3ccccc3F)CC2)CC1	7.08 µM [falling, single point]	
CCOC(=O)C1(CCc2ccccc2)CCN(C(=O)c2occc2C)CC1	22.4 µM [falling, partial curve, poor fit]	
Brc1cnc2nc(SC/C=C/c3ccccc3)[nH]c2c1	1.58 µM [rising, partial curve]	
O=C(c1ccc(Cl)c(Cl)c1)N1CCN(Cc2ccc3c(c2)OCO3)CC1	25.1 µM [falling, single point]	
CCC(=O)Nc1ccc(S(=O)(=O)Nc2ccccn2)cc1	0.0891 µM [falling, full curve, poor fit]	
O=C(COC(=O)c1cccnc1Cl)Nc1nc(-c2ccccc2)cs1	0.259 µM [rising, full curve, poor fit]	
Nc1nc(OCC2CCCCC2)c2[nH]cnc2n1	2.82 µM [rising, single point]	12.6 µM [falling, single point]

Compound	AC50 [1]	AC50 [2]
COc1ccc(-c2c(C#N)c(SCC(=O)c3cc4ccccc4oc3=O)nc(C)c2C(=O)Nc2ccccc2)cc1	18.4 µM [falling, single point]	
Cc1ccc(CN(C(=O)c2ccc(Cl)c([N+](=O)[O-])c2)C2CCS(=O)(=O)C2)o1 (configuration not stated)	1 µM [falling, full curve, poor fit]	
CNC(=O)CC1C(=O)N(c2ccc(Cl)cc2)C(=S)N1NC(=O)c1cccc(F)c1 (configuration not stated)	0.112 µM [rising, full curve, poor fit]	
COc1ccc(OC)c(-n2c(-c3cccc(S(=O)(=O)N(C)C)c3)n[nH]c2=S)c1	6.31 µM [rising, single point]	
CC1=CC(C)(C)N(C(=O)CNC2CCCC2)c2cc(C)ccc21	35.5 µM [falling, single point]	
Cc1cccc(NC(=S)NC(=O)c2oc3ccccc3c2C)n1	0.282 µM [rising, full curve, poor fit]	
CC[C@@]12C(=O)N(c3cccc(Br)c3)C(=O)N1[C@H](c1cccc(C)c1)[C@@H]1C(=O)N(Cc3ccccc3)C(=O)[C@@H]12	23.1 µM [falling, partial curve]	
Cc1ccc(-c2cc(C(=O)Nc3nccs3)c3ccccc3n2)c(C)c1	7.31 µM [falling, partial curve]	
CCN(C(=O)CSc1nc(C)nc2sc3c(c12)CCC3)C1CCS(=O)(=O)C1 (configuration not stated)	5.8 µM [rising, partial curve, poor fit]	
NC(=O)CSc1ncnc2c1nnn2Cc1ccc(F)cc1	15.8 µM [falling, partial curve, poor fit]	
O=C(NC1CCCCC1)C(c1cccs1)N(C(=O)c1ccco1)c1ccc2c(c1)OCCO2 (configuration not stated)	29.1 µM [falling, single point]	
Cc1occc1C(=O)O/N=C(\N)c1ccccc1	10 µM [falling, partial curve]	
CN(CCOc1ccccc1)C(=O)C1CCC(=O)N(CCc2ccc(Cl)cc2)C1 (configuration not stated)	12.6 µM [falling, partial curve, poor fit]	
CCOc1cc(/C=N\Nc2nc(Nc3ccccc3)nc(N3CCOCC3)n2)ccc1OC(=O)c1ccco1	5.17 µM [falling, single point]	
O=c1cc(-c2ccco2)oc2c1ccc1ccccc12	0.731 µM [falling, full curve, poor fit]	
COc1ccc(-c2noc(CSc3ccccc3)n2)cc1OC	0.794 µM [rising, partial curve, poor fit]	
CCn1cc(C(=O)Nn2cnnc2)c(=O)c2ccc(C)nc21	7.08 µM [rising, partial curve]	
COc1ccc(/C=C2/SC(=O)NC2=O)cc1	35.5 µM [falling, single point]	
CC(NC(=O)COC(=O)c1ccc(N(C)C)cc1)c1ccccc1 (configuration not stated)	35.5 µM [rising, single point]	
COC1=CC(=O)c2ccccc2C1=O	18.4 µM [falling, single point]	

Arranged by count of non-hydrogen atoms (high to low): part of the list above.
Compound	AC50 [1]	AC50 [2]
COc1ccc(-c2c(C#N)c(SCC(=O)c3cc4ccccc4oc3=O)nc(C)c2C(=O)Nc2ccccc2)cc1	18.4 µM [falling, single point]	
CNC(=O)CC1C(=O)N(c2ccc(Cl)cc2)C(=S)N1NC(=O)c1cccc(F)c1 (configuration not stated)	0.112 µM [rising, full curve, poor fit]	
CCN(C(=O)CSc1nc(C)nc2sc3c(c12)CCC3)C1CCS(=O)(=O)C1 (configuration not stated)	5.8 µM [rising, partial curve, poor fit]	
